Reference: article PMC10813020

The chains behind the UniProt entries cited, without tags or fusion partners.
UniProt Q5H8C4: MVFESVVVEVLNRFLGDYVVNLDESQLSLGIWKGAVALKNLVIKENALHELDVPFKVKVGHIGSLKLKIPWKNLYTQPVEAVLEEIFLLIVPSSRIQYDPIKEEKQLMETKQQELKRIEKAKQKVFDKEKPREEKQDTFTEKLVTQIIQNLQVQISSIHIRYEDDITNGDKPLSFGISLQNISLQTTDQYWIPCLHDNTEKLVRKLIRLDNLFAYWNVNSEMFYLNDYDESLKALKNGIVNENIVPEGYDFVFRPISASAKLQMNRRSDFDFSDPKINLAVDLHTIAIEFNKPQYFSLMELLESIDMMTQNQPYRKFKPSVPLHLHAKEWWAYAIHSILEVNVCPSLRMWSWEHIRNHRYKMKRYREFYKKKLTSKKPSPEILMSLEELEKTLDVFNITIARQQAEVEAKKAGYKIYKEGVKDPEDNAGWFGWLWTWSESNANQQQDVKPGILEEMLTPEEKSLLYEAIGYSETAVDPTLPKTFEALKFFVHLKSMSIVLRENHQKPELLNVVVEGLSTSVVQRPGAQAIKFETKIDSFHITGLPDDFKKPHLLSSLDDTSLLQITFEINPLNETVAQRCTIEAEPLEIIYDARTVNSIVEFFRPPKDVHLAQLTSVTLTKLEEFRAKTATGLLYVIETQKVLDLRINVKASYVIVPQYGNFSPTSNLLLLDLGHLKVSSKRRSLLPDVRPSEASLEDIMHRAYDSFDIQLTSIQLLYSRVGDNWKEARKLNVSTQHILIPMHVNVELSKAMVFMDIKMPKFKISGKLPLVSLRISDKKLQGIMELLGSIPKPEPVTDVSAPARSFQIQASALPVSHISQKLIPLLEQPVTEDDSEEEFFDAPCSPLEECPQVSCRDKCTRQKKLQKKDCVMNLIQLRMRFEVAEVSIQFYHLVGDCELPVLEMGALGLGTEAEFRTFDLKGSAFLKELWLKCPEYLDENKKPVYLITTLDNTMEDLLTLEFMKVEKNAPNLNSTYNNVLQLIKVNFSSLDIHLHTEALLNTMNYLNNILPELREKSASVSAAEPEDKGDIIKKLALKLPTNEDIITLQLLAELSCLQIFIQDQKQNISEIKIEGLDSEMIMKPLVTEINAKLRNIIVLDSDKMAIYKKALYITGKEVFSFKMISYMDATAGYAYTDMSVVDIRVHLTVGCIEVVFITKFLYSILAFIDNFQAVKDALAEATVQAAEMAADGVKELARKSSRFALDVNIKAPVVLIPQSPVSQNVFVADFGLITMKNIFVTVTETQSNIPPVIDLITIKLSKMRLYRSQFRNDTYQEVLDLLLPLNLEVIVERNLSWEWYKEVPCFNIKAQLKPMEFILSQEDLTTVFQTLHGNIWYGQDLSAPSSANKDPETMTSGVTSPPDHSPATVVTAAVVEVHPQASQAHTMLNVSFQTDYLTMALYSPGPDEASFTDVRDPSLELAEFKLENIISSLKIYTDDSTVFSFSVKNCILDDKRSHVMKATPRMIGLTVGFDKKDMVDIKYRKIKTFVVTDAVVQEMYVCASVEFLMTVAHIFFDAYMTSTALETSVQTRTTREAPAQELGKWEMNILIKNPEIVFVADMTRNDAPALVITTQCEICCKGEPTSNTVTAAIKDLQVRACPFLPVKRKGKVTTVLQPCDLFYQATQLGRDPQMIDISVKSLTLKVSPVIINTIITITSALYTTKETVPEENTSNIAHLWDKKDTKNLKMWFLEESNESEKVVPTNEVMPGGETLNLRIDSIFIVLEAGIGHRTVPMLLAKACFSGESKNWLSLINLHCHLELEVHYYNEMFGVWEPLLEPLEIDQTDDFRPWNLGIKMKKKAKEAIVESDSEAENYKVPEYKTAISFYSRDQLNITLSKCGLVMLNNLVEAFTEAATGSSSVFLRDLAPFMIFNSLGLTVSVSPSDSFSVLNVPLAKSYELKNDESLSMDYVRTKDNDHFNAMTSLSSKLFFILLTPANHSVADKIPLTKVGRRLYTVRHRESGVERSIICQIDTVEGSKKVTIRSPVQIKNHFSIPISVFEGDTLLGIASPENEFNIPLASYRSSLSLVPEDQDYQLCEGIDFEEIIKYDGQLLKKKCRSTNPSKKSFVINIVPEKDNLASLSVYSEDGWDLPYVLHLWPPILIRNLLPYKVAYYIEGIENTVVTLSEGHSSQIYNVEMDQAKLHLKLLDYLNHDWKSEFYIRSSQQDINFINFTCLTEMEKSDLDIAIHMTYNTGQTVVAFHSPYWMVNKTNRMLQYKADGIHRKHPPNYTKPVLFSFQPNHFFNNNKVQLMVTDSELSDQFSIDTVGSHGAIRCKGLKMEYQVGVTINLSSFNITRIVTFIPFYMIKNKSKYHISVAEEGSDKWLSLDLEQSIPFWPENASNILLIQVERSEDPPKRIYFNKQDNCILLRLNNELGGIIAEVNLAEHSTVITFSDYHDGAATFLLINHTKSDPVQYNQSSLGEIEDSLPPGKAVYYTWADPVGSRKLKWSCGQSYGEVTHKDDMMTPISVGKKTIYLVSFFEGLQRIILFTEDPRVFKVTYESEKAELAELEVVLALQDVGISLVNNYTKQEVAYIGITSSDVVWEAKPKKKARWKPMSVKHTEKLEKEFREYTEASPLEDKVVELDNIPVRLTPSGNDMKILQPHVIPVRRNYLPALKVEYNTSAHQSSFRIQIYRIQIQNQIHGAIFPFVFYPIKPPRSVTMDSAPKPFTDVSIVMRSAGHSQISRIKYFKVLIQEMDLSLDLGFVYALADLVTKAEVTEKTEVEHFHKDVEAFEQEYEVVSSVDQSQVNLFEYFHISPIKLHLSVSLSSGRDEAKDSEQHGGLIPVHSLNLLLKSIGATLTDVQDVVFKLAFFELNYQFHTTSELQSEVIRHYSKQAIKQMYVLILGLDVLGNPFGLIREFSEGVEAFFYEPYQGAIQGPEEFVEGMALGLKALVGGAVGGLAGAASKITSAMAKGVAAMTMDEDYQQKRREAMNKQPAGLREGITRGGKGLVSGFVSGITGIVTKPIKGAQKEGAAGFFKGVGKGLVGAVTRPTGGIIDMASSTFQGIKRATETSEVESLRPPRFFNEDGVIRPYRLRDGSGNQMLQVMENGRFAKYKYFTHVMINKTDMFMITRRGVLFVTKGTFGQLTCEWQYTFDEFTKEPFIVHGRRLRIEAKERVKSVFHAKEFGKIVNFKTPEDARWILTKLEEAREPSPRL

B1: acetyl-CoA acetyltransferase 1 (ACAT1) (protein, UniProt Q8QZT1 31-424)
chain: ASKPTLNEVVIVSAIRTPIGSFLGSLASQPATKLGTAAIQGAIEKAGIPKEEVKEVYMGNVIQGGEGQAPTRQATLGAGLPISTPCTTVNKVCASGMKAIMMASQSLMCGHQDVMVAGGMESMSNVPYVMSRGATPYGGVKLEDLIVKDGLTDVYNKIHMGNCAENTAKKMNISRQEQDTYALSSYTRSKEAWDAGKFASEITPITISVKGKPDVVVKEDEEYKRVDFSKVPKLKTVFQKENGTITAANASTLNDGAAALVLMTAEAAQRLNVKPLARIAAFADAAVDPIDFPLAPAYAVPKVLKYAGLKKEDIAMWEVNEAFSVVVLANIKMLEIDPQKVNIHGGAVSLGHPIGMSGARIVVHMAHALKPGEFGLASICNGGGGASALLIEKL
B2: glutathione S-transferase mu 5 (GSTM5) (protein, UniProt P48774 1-224)
chain: MSSKSMVLGYWDIRGLAHAIRMLLEFTDTSYEEKRYICGEAPDYDRSQWLDVKFKLDLDFPNLPYLMDGKNKITQSNAILRYIARKHNMCGDTEEEKIRVDIMENQIMDFRMQLVRLCYNSNHENLKPQYLEQLPAQLKQFSLFLGKFTWFAGEKLTFVDFLTYDVLDQNRIFEPKCLDEFPNLKAFMCRFEALEKIAAFLQSDRFFKMPINNKMAKWGNKCLC
B3: isocitrate dehydrogenase 3 subunit alpha (IDH3A) (protein, UniProt Q9D6R2 28-366)
chain: AGGVQTVTLIPGDGIGPEISASVMKIFDAAKAPIQWEERNVTAIQGPGGKWMIPPEAKESMDKNKMGLKGPLKTPIAAGHPSMNLLLRKTFDLYANVRPCVSIEGYKTPYTDVNIVTIRENTEGEYSGIEHVIVDGVVQSIKLITEEASKRIAEFAFEYARNNHRSNVTAVHKANIMRMSDGLFLQKCREVAENCKDIKFNEMYLDTVCLNMVQDPSQFDVLVMPNLYGDILSDLCAGLIGGLGVTPSGNIGANGVAIFESVHGTAPDIAGKDMANPTALLLSAVMMLRHMGLFDHAAKIEAACFATIKDGKSLTKDLGGNAKCSDFTEEICRRVKDLD

biological target: chorein (VPS13A, vacuolar protein sorting 13 homolog A) (mouse (endogenous in epididymal sperm)) (UniProt Q5H8C4); assay: affinity purification with mass spectrometry; anti-chorein antibody on Dynabeads Protein G; 500 µg soluble fraction of wild-type mouse epididymal sperm lysate (1% NP-40), 10 min at room temperature, three washes with lysis buffer; eluate by SDS-PAGE, in-gel trypsin digestion, nano-LC-MS/MS; IgG co-IP as negative control; hits chosen by spectral count

binding, binds:
B1
B2
B3

These are yes or no findings as the source states them, for the method shown. In cells and extracts the contact can be indirect. A yes stands for co-enrichment or nearness to the bait. Other partners may have been found. Where a sequence is shown, tags or fusion partners need not be part of it.
